Measurements taken from patent US12527775B2 (priority 2020, dated 2026).
Structures were worked out from names or drawings and are uncertain.

Protein sequences, listed by entry. Tags and fused reporters are not part of them.
UniProt P28223, whole entry: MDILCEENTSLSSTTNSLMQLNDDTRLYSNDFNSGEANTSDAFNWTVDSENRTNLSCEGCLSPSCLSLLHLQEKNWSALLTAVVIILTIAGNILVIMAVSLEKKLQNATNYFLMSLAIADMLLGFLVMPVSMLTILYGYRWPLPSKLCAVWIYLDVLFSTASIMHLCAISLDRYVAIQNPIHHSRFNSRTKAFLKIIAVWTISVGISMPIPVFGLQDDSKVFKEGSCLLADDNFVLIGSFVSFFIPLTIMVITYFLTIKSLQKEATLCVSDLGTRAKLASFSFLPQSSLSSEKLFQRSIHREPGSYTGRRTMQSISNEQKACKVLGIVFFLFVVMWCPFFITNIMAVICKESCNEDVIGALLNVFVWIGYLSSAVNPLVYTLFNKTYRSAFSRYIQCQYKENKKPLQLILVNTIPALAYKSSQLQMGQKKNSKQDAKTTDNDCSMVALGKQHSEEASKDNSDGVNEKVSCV

Target: human recombinant 5-HT2A receptor (Homo sapiens (Human), UniProt P28223)
Conditions: read-out: h-5-HT2A Ki

For `CC(C)COc1ccc(CNC(=O)N(Cc2cc[nH]n2)C2CCN(C)CC2)cc1`, which Ki is on record?
The Ki was 10 to 100 nM.
